Assay results reported in the supplement of paper PMC10849652.
The other results are listed elsewhere or left out.

The chains behind the UniProt entries cited, without tags or fusion partners. Where a name states a change or a piece, a line headed by the entry shows the natural chain unless it says otherwise.
UniProt P63027, whole entry, looked up: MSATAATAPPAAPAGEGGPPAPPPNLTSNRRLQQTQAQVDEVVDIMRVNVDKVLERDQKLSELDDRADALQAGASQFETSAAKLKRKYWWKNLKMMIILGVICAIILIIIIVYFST
UniProt Q9NVA1: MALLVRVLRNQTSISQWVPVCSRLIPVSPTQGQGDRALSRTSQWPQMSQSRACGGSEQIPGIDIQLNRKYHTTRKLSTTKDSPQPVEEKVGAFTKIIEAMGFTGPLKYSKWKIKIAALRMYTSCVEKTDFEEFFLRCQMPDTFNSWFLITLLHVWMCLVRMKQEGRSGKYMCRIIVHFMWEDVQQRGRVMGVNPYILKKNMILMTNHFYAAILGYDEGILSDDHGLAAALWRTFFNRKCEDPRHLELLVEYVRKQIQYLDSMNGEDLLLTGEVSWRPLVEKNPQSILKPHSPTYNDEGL
UniProt Q69YN4: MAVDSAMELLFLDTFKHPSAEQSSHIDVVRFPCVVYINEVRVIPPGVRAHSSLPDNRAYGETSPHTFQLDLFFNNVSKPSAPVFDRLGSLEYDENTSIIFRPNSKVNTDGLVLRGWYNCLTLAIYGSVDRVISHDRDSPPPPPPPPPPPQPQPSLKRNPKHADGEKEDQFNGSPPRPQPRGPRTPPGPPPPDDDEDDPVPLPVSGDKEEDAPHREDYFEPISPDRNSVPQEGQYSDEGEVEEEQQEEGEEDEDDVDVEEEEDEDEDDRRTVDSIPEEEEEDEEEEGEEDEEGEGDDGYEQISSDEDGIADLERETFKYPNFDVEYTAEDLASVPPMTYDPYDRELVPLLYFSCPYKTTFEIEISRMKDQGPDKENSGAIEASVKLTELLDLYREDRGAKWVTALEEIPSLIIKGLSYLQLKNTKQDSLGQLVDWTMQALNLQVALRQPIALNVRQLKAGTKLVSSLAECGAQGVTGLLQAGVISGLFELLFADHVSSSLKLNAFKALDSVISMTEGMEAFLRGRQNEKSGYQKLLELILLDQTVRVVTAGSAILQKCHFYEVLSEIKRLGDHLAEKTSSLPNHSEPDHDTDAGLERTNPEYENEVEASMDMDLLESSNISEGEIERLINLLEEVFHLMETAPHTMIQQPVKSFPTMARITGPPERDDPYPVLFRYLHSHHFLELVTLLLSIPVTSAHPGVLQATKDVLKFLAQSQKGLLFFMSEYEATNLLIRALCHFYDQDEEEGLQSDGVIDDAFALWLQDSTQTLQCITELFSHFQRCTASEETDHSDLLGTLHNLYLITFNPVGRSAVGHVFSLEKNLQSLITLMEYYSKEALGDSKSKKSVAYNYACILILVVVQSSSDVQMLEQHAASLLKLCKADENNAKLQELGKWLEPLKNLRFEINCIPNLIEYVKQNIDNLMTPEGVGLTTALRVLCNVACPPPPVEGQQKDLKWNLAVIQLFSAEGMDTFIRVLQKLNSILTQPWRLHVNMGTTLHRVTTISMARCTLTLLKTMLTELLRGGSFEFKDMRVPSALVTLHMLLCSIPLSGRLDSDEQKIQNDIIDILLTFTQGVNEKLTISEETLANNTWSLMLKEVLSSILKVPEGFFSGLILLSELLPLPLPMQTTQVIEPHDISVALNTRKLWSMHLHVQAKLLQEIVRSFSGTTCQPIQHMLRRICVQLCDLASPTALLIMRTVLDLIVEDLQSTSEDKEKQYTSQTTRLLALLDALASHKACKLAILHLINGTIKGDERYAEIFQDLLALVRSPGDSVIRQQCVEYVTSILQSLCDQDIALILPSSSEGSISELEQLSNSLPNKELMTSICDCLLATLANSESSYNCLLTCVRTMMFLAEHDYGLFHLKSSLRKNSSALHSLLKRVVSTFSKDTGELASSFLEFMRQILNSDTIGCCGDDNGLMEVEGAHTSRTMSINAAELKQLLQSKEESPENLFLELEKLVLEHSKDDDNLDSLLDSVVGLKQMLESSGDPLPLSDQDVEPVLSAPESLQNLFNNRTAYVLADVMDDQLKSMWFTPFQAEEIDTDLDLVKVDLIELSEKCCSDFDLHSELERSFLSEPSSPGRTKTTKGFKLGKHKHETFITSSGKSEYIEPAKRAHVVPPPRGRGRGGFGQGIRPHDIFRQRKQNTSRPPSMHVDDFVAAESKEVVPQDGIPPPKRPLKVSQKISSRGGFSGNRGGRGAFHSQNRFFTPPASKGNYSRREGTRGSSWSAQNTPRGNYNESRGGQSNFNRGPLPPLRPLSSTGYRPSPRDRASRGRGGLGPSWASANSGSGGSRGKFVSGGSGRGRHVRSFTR
UniProt Q9UBK9, whole entry, looked up: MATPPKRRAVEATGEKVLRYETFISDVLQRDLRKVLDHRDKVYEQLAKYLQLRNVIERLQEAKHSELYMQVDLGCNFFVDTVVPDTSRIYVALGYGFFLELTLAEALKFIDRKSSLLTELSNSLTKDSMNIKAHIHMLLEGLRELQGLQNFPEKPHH
UniProt Q15836, whole entry, looked up: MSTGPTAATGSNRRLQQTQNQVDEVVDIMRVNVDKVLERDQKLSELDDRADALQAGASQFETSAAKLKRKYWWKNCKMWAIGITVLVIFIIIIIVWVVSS
UniProt P14927: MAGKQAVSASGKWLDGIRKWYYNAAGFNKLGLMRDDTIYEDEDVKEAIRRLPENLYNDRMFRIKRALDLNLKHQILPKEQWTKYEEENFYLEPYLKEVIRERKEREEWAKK
UniProt P08670, whole entry, looked up: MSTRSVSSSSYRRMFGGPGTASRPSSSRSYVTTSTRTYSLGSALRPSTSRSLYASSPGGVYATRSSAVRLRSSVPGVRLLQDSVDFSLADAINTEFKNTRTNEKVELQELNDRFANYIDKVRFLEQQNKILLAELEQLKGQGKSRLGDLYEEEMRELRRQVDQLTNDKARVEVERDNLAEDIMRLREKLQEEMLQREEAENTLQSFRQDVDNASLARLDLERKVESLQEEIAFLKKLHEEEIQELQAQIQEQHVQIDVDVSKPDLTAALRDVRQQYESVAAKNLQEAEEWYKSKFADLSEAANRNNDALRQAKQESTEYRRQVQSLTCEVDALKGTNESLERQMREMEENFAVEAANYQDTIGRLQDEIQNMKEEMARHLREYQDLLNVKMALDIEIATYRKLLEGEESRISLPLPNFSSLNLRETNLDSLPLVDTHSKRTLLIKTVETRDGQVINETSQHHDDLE
UniProt Q9BVJ6: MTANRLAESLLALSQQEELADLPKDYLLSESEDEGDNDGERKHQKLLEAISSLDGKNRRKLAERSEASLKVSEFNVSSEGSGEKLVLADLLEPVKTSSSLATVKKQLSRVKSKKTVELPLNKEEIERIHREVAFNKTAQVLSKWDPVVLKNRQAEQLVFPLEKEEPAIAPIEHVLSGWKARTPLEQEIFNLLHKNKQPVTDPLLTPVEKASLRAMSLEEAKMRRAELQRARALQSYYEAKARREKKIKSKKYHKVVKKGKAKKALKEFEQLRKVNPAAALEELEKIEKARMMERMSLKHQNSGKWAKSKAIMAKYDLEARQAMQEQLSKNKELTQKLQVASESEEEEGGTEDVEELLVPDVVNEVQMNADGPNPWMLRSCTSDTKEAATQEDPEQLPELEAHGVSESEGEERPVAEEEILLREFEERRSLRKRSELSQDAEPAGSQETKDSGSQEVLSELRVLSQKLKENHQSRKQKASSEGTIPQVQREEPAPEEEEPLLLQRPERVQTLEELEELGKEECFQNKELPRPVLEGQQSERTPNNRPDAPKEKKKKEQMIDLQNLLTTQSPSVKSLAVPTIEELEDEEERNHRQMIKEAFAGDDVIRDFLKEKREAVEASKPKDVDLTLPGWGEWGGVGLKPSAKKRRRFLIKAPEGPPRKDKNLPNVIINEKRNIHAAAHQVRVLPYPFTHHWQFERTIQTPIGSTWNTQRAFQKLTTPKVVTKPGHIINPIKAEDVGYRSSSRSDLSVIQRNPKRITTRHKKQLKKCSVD
UniProt P18206: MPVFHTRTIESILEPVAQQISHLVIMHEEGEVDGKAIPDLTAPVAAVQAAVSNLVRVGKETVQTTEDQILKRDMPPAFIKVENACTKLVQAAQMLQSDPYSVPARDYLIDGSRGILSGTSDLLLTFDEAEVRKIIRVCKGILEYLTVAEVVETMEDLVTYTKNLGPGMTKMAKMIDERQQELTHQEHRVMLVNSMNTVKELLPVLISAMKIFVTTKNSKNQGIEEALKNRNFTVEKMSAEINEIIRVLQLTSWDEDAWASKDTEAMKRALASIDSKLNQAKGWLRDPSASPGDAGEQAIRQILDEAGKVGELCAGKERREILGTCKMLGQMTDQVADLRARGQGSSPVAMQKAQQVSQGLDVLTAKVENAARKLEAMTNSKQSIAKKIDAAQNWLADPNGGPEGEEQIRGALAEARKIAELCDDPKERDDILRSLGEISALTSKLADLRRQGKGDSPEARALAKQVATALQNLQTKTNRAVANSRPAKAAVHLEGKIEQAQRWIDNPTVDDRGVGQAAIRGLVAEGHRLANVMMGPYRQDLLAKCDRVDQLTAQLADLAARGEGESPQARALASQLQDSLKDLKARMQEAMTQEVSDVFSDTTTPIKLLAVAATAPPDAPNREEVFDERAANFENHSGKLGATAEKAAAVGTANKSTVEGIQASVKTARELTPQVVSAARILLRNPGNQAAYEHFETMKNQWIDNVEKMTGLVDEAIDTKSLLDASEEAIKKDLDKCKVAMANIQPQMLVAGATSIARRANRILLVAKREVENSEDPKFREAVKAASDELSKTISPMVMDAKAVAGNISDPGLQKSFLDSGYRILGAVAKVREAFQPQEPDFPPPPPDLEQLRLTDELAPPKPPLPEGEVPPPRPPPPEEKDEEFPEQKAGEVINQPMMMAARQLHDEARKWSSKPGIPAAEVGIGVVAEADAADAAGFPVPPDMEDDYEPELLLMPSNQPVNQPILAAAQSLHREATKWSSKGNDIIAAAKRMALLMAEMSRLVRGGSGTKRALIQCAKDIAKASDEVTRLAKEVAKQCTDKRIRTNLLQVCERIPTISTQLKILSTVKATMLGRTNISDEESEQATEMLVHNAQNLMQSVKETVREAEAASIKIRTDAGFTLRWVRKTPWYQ
UniProt Q9BZM6: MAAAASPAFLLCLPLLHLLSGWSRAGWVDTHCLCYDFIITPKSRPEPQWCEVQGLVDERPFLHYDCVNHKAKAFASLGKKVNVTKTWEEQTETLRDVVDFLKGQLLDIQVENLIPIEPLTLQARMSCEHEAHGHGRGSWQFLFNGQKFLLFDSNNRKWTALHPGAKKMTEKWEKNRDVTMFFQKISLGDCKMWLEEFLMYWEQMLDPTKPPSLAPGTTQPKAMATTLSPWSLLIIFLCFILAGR
UniProt O14957: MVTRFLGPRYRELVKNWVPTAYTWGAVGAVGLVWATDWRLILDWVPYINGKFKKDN
UniProt P22415: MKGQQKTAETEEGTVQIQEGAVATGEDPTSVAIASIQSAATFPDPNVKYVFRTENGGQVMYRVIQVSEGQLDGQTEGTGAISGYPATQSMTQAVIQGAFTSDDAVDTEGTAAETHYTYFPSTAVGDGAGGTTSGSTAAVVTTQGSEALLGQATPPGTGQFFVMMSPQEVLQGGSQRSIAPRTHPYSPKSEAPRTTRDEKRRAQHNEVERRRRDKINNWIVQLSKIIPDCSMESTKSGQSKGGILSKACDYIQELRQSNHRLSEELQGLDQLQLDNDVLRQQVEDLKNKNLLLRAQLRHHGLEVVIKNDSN
UniProt P07919: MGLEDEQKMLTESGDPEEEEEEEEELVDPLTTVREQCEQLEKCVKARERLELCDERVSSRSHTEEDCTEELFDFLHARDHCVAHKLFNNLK
UniProt O94782: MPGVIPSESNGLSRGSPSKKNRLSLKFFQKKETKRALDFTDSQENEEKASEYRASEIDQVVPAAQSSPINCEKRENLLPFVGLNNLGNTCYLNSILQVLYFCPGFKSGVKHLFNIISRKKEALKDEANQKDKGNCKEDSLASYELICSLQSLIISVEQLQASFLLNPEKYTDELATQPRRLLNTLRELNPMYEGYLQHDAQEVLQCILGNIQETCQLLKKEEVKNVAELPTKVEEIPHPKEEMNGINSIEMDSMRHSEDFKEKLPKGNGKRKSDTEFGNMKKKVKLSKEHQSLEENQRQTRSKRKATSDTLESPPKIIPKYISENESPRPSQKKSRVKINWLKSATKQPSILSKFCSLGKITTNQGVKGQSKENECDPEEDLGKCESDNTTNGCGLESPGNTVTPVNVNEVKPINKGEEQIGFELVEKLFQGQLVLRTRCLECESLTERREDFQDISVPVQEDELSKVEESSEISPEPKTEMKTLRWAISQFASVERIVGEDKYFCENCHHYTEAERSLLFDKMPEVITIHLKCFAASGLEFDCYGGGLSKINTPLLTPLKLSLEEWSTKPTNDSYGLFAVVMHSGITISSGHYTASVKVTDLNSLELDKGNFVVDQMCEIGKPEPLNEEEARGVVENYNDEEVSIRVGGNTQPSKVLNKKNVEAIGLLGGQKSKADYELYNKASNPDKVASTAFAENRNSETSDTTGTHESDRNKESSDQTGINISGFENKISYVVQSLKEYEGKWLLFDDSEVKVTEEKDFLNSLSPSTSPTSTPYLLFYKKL

Legend:
Assay in all cases: log2 fold change, soluble protein after heating vs DMSO (PISA); higher = thermal stabilisation; K562 lysate, 10 uM; active = over 0.2 and 3.5 SD of the protein, either way, in both replicates (recomputed)
nilotinib = compound: Cc1cn(-c2cc(NC(=O)c3ccc(C)c(Nc4nccc(-c5cccnc5)n4)c3)cc(C(F)(F)F)c2)cn1 [nilotinib]
Outline: (§1)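 Soluble protein was defined as the supernatant remaining after 21,000xg for 90 min, following pooling of heated aliquots and adjustment to 0.5% NP-40 at 4°C. Before that, crude K562 extract at 1 mg/mL protein in PBS pH 7.4 with 1 mM MgCl2 was treated with 10 μM compound for 30 min and heated for 3 min across 48°C-58°C. Quantification used TMTpro 16plex LC-MS/MS with channel sums equalised, and values are log-two fold changes in thermal stability relative to solvent controls from duplicates.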

[1] = compound: Cc1nc(Nc2n[nH]c3c2CN(C(=O)N[C@H](CN(C)C)c2ccccc2)C3(C)C)c2sccc2n1
Outline: as §1

dasatinib = compound: Cc1nc(Nc2ncc(C(=O)Nc3c(C)cccc3Cl)s2)cc(N2CCN(CCO)CC2)n1 [dasatinib]
Outline: as §1

[2] = compound: Cc1ncc(-c2ccnc(Nc3ccc(S(C)(=O)=O)cc3)n2)n1C(C)C
Outline: as §1

[3] = compound: Cn1cc(-c2ccc3c(c2)CCN3C(=O)Cc2cccc(C(F)(F)F)c2)c2c(N)ncnc21
Outline: as §1

quisinostat = compound: Cn1cc(CNCC2CCN(c3ncc(C(=O)NO)cn3)CC2)c2ccccc21 [quisinostat]
Outline: as §1

tipifarnib = compound: Cn1cncc1[C@@](N)(c1ccc(Cl)cc1)c1ccc2c(c1)c(-c1cccc(Cl)c1)cc(=O)n2C [tipifarnib]
Outline: as §1

[4] = compound: NC(=O)Nc1cc(-c2cccc(F)c2)sc1C(=O)N[C@H]1CCCNC1
Outline: as §1

[5] = compound: NC(=O)c1cnc(N[C@@H]2CCCC[C@@H]2N)nc1Nc1cccc(-n2nccn2)c1
Outline: as §1

[6] = compound: NC1(c2ccc(-c3nc4ccn5c(=O)[nH]nc5c4cc3-c3ccccc3)cc2)CCC1
Outline: as §1

[7] = compound: NCC(=O)Nc1ccc(-n2nc(C(F)(F)F)cc2-c2ccc3c(ccc4ccccc43)c2)cc1
Outline: as §1

vorinostat = compound: O=C(CCCCCCC(=O)Nc1ccccc1)NO [vorinostat]
Outline: as §1

silmitasertib = compound: O=C(O)c1ccc2c(c1)nc(Nc1cccc(Cl)c1)c1ccncc12 [silmitasertib]
Outline: as §1

[8] = compound: O=C1NC(=O)C(c2cnc3ccccn23)=C1c1cn2c3c(cc(F)cc13)CN(C(=O)N1CCCCC1)CC2
Outline: as §1

entospletinib = compound: c1cn2cc(-c3ccc4cn[nH]c4c3)nc(Nc3ccc(N4CCOCC4)cc3)c2n1 [entospletinib]
Outline: as §1

Measured: log2 fold change

VAMP2 (UniProt P63027)
inactive: nilotinib -0.034 | [1] 0.034 | dasatinib 0.002 | [2] 0.066 | [3] -0.009 | quisinostat 0.262 | tipifarnib 0.041 | [4] -0.027 | [5] 0.019 | [6] 0.067 | [7] 0.071 | vorinostat 0.016 | silmitasertib -0.008 | [8] 0.132 | entospletinib -0.054

UQCC1 (UniProt Q9NVA1)
inactive: nilotinib 0.02 | [1] 0.011 | dasatinib 0.015 | [2] -0.015 | [3] -0.026 | quisinostat 0.107 | tipifarnib 0.002 | [4] -0.011 | [5] -0.005 | [6] 0.001 | [7] -0.051 | vorinostat 0.071 | silmitasertib 0.035 | [8] 0.011 | entospletinib 0.02

VIRMA (UniProt Q69YN4)
inactive: nilotinib -0.004 | [1] 0.021 | dasatinib -0.008 | [2] -0.096 | [3] -0.018 | quisinostat -0.034 | tipifarnib -0.005 | [4] -0.004 | [5] 0.067 | [6] -0.002 | [7] -0.022 | vorinostat -0.094 | silmitasertib 0.014 | [8] 0.033 | entospletinib -0.104

VAC14 (UniProt Q08AM6)
inactive: nilotinib -0.014 | [1] 0.018 | dasatinib -0.022 | [2] 0.009 | [3] 0.058 | quisinostat -0.07 | tipifarnib -0.059 | [4] 0.012 | [5] -0.002 | [6] -0.027 | [7] -0.02 | silmitasertib 0.041 | [8] 0.005 | entospletinib -0.008
active: vorinostat -0.229

UXT isoform 2 (UniProt Q9UBK9)
inactive: nilotinib 0.012 | [1] -0.019 | dasatinib 0.079 | [2] 0.019 | [3] -0.05 | quisinostat -0.03 | tipifarnib -0.015 | [4] -0.04 | [5] -0.026 | [6] -0.036 | [7] -0.003 | vorinostat 0.037 | silmitasertib -0.039 | [8] -0.025 | entospletinib 0.02

VAMP3 (UniProt Q15836)
inactive: nilotinib 0.052 | [1] 0.043 | dasatinib -0.068 | [2] -0.065 | [3] -0.079 | quisinostat -0.103 | tipifarnib -0.004 | [4] -0.08 | [5] 0.007 | [6] 0.036 | [7] -0.026 | vorinostat 0.136 | silmitasertib -0.043 | [8] 0.206 | entospletinib -0.069

USP47 isoform 4 (UniProt Q96K76)
inactive: nilotinib -0.006 | [1] -0.021 | dasatinib 0.006 | [2] -0.009 | [3] 0.01 | quisinostat -0.026 | tipifarnib 0.016 | [4] 0.023 | [5] -0.006 | [6] 0.001 | [7] 0.003 | vorinostat -0.052 | silmitasertib 0.023 | [8] -0.025 | entospletinib 0.008

UQCRB (UniProt P14927)
inactive: nilotinib 0.004 | [1] -0.006 | dasatinib 0.019 | [2] -0.006 | [3] -0.038 | quisinostat -0.033 | tipifarnib -0.013 | [4] 0.011 | [5] 0.021 | [6] 0.013 | [7] 0.016 | vorinostat 0.142 | silmitasertib -0.002 | [8] 0.011 | entospletinib 0

VIM (UniProt P08670)
inactive: nilotinib -0.004 | [1] -0.012 | dasatinib -0.023 | [2] 0.018 | [3] -0.012 | quisinostat 0.024 | tipifarnib -0.042 | [4] 0.004 | [5] -0.009 | [6] 0.023 | [7] 0 | vorinostat -0.012 | silmitasertib -0.005 | [8] -0.048 | entospletinib -0.031

UTP14A (UniProt Q9BVJ6)
inactive: nilotinib 0.002 | [1] -0.029 | dasatinib 0.097 | [2] -0.009 | [3] 0.001 | quisinostat -0.011 | tipifarnib -0.017 | [4] -0.009 | [5] 0.001 | [6] 0.078 | [7] -0.024 | vorinostat 0.09 | silmitasertib -0.119 | [8] -0.018 | entospletinib -0.014

UFL1 (UniProt O94874)
inactive: nilotinib 0.017 | [1] 0.008 | dasatinib -0.048 | [2] 0.033 | [3] 0.035 | quisinostat 0.014 | tipifarnib -0.007 | [4] 0.015 | [5] -0.027 | [6] -0.014 | [7] -0.007 | vorinostat 0.039 | silmitasertib 0.046 | [8] -0.013 | entospletinib 0.031

VCL (UniProt P18206)
inactive: nilotinib 0.005 | [1] 0.005 | dasatinib 0.008 | [2] 0.003 | [3] -0.003 | quisinostat -0.01 | tipifarnib 0.011 | [4] -0.021 | [5] -0.002 | [6] -0.001 | [7] -0.001 | vorinostat 0.106 | silmitasertib -0.018 | [8] -0.008 | entospletinib -0.003

ULBP1 (UniProt Q9BZM6)
inactive: nilotinib -0.037 | [1] -0.018 | dasatinib 0.027 | [2] 0.052 | [3] 0.038 | quisinostat -0.089 | tipifarnib 0.103 | [4] 0.004 | [5] -0.106 | [6] -0.015 | [7] 0.071 | vorinostat 0.045 | silmitasertib 0.007 | [8] -0.041 | entospletinib 0.035

Four successive entries already listed, quoted:
UQCRB (UniProt P14927)
inactive: nilotinib 0.004 | [1] -0.006 | dasatinib 0.019 | [2] -0.006 | [3] -0.038 | quisinostat -0.033 | tipifarnib -0.013 | [4] 0.011 | [5] 0.021 | [6] 0.013 | [7] 0.016 | vorinostat 0.142 | silmitasertib -0.002 | [8] 0.011 | entospletinib 0

VIM (UniProt P08670)
inactive: nilotinib -0.004 | [1] -0.012 | dasatinib -0.023 | [2] 0.018 | [3] -0.012 | quisinostat 0.024 | tipifarnib -0.042 | [4] 0.004 | [5] -0.009 | [6] 0.023 | [7] 0 | vorinostat -0.012 | silmitasertib -0.005 | [8] -0.048 | entospletinib -0.031

UTP14A (UniProt Q9BVJ6)
inactive: nilotinib 0.002 | [1] -0.029 | dasatinib 0.097 | [2] -0.009 | [3] 0.001 | quisinostat -0.011 | tipifarnib -0.017 | [4] -0.009 | [5] 0.001 | [6] 0.078 | [7] -0.024 | vorinostat 0.09 | silmitasertib -0.119 | [8] -0.018 | entospletinib -0.014

UFL1 (UniProt O94874)
inactive: nilotinib 0.017 | [1] 0.008 | dasatinib -0.048 | [2] 0.033 | [3] 0.035 | quisinostat 0.014 | tipifarnib -0.007 | [4] 0.015 | [5] -0.027 | [6] -0.014 | [7] -0.007 | vorinostat 0.039 | silmitasertib 0.046 | [8] -0.013 | entospletinib 0.031

Remaining list, next part

UQCR11 (UniProt O14957)
inactive: nilotinib 0.096 | [1] -0.001 | dasatinib 0.03 | [2] 0.137 | [3] -0.012 | quisinostat 0 | tipifarnib 0.044 | [4] -0.022 | [5] -0.079 | [6] -0.015 | [7] -0.001 | vorinostat 0.197 | silmitasertib -0.019 | [8] 0.087 | entospletinib -0.011

USF1 (UniProt P22415)
inactive: nilotinib -0.079 | [1] 0.012 | dasatinib 0.077 | [2] -0.042 | [3] 0.022 | quisinostat 0.009 | tipifarnib -0.007 | [4] 0.029 | [5] 0 | [6] -0.012 | [7] 0.08 | vorinostat -0.303 | silmitasertib 0.09 | [8] -0.042 | entospletinib 0.034

UQCRH (UniProt P07919)
inactive: nilotinib 0.001 | [1] 0.018 | dasatinib 0.012 | [2] 0.015 | [3] -0.016 | quisinostat -0.107 | tipifarnib -0.069 | [4] -0.015 | [5] -0.012 | [6] 0.071 | [7] 0.006 | vorinostat -0.05 | silmitasertib 0.015 | [8] 0.01 | entospletinib -0.024

USP5 isoform 2 (UniProt P45974)
inactive: nilotinib -0.007 | [1] -0.013 | dasatinib 0.023 | [2] 0.003 | [3] -0.003 | quisinostat -0.01 | tipifarnib 0.005 | [4] 0.009 | [5] 0.006 | [6] 0.022 | [7] 0.013 | vorinostat -0.133 | silmitasertib 0.02 | [8] -0.016 | entospletinib -0.016

USP4 (UniProt Q13107)
inactive: nilotinib -0.058 | [1] 0.023 | dasatinib 0.037 | [2] -0.068 | [3] 0.01 | quisinostat -0.083 | tipifarnib 0.034 | [4] 0.064 | [5] 0.022 | [6] -0.053 | [7] 0.018 | vorinostat -0.253 | silmitasertib 0.045 | [8] -0.055 | entospletinib 0.017

USP10 isoform 2 (UniProt Q14694)
active: vorinostat -0.294
inactive: nilotinib -0.022 | [1] 0.013 | dasatinib -0.058 | [2] 0.013 | [3] -0.013 | quisinostat -0.081 | tipifarnib -0.007 | [4] 0.034 | [5] -0.011 | [6] -0.012 | [7] 0.022 | silmitasertib 0 | [8] -0.002 | entospletinib -0.002

USP1 (UniProt O94782)
inactive: nilotinib 0.044 | [1] 0.007 | dasatinib -0.034 | [2] 0.011 | [3] 0.016 | quisinostat -0.006 | tipifarnib -0.002 | [4] 0.03 | [5] -0.028 | [6] 0.026 | [7] -0.002 | vorinostat -0.156 | silmitasertib 0.02 | [8] -0.003 | entospletinib 0.029

VIPAS39 (UniProt Q9H9C1)
inactive: nilotinib 0.069 | [1] -0.06 | dasatinib -0.081 | [2] 0.017 | [3] -0.063 | quisinostat -0.052 | tipifarnib -0.106 | [4] 0.016 | [5] 0.045 | [6] -0.061 | [7] -0.008 | vorinostat -0.137 | silmitasertib 0.077 | [8] 0.013 | entospletinib -0.056
